Data reported in the supplement of paper PMC11006884.
Shown are results outside the selection of targets with a hit, which stands elsewhere. This is a noisy data set. Only a part is listed here, and it is no random draw.

Chains of the proteins cited; added tags and fusions are not shown. Lines headed by an entry give the natural chain unless they say otherwise; changes in a name come on top.
UniProt P46459: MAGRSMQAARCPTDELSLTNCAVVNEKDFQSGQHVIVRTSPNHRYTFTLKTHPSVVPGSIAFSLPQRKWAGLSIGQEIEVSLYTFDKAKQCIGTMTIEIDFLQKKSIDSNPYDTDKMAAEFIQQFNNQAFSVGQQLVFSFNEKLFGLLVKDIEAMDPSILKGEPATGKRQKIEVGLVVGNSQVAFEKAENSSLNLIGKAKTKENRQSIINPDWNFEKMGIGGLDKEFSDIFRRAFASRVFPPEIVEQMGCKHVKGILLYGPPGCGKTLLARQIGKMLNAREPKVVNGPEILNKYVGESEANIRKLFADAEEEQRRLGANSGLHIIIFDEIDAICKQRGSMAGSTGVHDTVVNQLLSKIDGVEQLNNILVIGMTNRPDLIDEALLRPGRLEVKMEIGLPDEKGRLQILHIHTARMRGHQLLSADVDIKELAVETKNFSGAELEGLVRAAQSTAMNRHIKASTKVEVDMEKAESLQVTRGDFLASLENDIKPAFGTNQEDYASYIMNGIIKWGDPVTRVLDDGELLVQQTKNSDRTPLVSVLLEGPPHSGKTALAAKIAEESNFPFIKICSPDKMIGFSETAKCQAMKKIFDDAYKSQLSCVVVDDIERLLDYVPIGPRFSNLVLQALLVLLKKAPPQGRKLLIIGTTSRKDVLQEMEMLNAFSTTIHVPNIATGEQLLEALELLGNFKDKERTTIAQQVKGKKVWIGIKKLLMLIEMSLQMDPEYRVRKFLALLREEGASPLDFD
UniProt P49327, whole entry, looked up: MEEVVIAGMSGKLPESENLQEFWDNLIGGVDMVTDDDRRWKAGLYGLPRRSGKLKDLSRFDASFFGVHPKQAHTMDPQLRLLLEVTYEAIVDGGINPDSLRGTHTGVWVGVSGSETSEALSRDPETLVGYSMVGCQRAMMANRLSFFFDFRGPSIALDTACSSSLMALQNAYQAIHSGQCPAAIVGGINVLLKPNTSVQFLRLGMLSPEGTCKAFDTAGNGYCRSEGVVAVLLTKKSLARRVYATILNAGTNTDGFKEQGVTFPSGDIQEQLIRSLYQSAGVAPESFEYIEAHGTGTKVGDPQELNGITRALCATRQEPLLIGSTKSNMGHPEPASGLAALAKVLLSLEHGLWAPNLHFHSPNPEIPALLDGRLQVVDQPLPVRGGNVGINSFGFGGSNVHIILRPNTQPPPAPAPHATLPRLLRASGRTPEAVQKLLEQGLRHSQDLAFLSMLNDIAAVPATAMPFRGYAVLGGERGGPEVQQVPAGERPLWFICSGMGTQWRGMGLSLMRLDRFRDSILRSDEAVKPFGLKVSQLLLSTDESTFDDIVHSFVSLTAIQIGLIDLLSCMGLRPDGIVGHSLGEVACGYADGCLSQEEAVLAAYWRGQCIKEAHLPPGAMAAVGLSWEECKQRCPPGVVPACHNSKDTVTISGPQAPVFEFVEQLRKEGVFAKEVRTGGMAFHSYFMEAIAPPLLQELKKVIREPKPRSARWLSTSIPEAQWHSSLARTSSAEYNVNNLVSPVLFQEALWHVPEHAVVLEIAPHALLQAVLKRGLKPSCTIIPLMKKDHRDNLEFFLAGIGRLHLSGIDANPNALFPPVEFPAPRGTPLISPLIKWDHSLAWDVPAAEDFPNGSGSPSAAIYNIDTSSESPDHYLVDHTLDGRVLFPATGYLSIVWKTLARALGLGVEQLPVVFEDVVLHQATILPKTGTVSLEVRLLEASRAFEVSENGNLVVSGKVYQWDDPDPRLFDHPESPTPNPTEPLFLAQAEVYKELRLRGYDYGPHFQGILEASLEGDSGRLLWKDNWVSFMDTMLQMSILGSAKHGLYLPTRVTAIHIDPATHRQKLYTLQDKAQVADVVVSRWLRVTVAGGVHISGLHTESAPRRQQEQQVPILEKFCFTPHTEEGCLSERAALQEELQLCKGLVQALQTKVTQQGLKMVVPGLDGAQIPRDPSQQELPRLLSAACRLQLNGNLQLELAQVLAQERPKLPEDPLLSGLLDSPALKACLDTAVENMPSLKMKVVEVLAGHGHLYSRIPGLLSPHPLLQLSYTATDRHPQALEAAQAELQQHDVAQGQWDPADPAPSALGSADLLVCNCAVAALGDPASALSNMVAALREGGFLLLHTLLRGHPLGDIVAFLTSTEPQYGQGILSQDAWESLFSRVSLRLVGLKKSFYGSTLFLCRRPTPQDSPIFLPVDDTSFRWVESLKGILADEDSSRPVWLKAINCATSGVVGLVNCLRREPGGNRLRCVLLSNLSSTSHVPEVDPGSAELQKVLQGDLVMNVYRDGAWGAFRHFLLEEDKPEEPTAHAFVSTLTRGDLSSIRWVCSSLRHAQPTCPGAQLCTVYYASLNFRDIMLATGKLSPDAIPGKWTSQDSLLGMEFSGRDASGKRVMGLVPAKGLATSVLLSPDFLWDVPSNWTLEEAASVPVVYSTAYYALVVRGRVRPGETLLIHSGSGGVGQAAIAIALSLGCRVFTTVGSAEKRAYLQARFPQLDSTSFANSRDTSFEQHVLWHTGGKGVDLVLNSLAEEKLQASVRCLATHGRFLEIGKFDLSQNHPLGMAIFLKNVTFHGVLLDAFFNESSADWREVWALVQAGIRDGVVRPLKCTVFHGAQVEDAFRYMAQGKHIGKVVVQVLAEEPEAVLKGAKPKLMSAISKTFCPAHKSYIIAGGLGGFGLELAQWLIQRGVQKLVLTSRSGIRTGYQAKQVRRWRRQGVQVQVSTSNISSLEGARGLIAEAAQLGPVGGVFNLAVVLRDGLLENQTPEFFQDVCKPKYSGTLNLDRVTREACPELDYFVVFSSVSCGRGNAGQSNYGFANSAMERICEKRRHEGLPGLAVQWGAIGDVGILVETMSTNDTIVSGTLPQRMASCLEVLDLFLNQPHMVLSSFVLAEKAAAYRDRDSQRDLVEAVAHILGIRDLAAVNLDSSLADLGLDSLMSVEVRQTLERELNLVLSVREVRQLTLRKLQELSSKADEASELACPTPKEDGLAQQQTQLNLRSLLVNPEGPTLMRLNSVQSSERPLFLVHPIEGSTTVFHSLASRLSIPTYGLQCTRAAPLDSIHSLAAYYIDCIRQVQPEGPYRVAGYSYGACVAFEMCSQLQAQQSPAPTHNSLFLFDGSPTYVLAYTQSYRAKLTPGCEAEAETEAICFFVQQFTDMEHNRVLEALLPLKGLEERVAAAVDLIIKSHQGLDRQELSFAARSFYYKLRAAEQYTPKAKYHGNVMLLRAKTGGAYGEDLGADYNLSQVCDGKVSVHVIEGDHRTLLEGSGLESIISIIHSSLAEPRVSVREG
UniProt P46013: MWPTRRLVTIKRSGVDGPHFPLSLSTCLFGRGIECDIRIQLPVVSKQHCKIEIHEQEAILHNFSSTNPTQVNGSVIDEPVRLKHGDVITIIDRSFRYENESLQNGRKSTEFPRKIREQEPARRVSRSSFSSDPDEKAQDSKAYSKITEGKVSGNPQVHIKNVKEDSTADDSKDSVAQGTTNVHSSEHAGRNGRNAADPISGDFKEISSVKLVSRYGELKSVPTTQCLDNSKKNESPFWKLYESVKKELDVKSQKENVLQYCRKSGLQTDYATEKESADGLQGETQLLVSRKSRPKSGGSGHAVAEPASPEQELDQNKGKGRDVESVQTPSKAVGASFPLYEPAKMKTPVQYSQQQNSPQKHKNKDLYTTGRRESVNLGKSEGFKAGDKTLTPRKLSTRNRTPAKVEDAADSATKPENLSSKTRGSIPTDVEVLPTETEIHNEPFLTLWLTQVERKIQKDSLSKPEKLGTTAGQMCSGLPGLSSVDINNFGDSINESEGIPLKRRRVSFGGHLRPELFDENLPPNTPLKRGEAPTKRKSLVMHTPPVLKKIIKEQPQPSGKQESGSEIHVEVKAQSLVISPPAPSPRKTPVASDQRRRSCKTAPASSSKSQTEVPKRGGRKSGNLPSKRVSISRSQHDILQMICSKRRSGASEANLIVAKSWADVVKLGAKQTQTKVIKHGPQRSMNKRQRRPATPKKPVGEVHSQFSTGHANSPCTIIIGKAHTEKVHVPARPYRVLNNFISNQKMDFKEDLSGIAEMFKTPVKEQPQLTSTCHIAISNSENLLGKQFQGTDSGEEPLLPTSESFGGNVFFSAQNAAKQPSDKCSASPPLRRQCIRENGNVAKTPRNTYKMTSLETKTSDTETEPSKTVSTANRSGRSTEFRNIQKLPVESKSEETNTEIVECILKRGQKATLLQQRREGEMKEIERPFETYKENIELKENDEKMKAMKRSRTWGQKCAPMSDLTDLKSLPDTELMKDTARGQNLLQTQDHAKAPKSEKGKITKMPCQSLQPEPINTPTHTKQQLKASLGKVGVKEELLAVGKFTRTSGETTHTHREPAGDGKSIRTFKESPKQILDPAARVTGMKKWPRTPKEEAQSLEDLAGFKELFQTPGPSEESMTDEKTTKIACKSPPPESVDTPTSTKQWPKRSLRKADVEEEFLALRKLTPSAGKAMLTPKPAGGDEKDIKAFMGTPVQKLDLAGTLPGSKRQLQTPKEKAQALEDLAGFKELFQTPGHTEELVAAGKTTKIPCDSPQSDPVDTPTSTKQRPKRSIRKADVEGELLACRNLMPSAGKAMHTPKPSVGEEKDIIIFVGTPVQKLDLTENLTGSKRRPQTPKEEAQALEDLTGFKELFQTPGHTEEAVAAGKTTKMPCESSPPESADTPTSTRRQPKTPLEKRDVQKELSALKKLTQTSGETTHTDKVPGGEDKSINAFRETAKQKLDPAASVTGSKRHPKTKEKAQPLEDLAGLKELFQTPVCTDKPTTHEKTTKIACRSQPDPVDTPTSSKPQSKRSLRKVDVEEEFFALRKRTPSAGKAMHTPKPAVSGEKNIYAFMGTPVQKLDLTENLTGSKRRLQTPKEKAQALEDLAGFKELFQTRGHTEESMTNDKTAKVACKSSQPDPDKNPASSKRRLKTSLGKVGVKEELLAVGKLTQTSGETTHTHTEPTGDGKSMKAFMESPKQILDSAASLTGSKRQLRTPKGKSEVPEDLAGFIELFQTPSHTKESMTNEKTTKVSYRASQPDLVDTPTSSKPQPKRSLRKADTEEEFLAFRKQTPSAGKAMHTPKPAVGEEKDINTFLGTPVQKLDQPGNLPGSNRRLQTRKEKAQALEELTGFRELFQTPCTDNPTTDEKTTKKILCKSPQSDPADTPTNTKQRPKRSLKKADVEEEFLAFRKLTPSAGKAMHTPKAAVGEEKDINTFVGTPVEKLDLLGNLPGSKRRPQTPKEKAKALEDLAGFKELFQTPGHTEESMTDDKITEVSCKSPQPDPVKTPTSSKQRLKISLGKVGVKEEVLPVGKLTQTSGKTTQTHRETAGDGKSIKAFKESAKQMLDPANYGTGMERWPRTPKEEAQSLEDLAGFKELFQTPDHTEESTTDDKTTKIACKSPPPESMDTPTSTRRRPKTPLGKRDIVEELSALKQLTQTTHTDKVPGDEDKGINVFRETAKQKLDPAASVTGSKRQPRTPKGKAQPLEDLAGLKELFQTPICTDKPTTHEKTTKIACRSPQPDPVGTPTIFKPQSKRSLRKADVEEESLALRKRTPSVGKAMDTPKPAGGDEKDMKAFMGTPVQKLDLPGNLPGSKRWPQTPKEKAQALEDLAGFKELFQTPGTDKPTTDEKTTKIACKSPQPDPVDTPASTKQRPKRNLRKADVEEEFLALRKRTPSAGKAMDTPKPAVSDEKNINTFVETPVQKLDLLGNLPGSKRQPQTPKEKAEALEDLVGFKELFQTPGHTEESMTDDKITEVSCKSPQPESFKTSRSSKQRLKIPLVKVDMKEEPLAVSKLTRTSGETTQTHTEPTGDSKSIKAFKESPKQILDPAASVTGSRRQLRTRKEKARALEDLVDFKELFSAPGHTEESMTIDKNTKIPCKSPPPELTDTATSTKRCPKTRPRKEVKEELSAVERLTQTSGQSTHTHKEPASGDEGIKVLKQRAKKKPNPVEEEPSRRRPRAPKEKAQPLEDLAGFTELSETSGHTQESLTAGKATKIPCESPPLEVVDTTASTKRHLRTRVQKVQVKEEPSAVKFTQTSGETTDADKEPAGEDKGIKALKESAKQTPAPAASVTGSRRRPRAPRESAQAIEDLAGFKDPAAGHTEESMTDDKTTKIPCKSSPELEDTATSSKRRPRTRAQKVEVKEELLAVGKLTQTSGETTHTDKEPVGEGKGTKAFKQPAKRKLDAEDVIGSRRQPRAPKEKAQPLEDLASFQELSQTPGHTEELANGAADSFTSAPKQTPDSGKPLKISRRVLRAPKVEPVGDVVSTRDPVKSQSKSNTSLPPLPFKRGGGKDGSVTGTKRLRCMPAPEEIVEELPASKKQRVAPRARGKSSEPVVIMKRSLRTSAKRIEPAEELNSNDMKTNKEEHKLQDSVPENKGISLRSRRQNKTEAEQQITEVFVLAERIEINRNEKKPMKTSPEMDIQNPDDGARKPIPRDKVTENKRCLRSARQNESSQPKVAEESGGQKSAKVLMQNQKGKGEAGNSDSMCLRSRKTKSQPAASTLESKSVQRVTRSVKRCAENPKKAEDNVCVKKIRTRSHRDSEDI

compound: COC(=O)/C=C/c1ccccc1 [methyl cinnamate]; test: log2 ratio of iodoacetamide-alkyne labeling of the cysteine site, DMSO over compound (competition); higher = stronger covalent engagement of the cysteine by the compound, active = 1 or more; settings: 500 µM; treatment time 1 h; system: HEK293T cell lysate
In short: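 Three replicates, each with duplicate channels, were prepared from HEK293T lysate (2 mg/mL) treated with vehicle or electrophile at 500 µM for 1 h at ambient temperature. Iodoacetamide alkyne was then applied for 1 h, and samples were clicked to sCIP-TMT reagents, pooled, trypsin-digested overnight at 37 °C, enriched on streptavidin, acid-eluted and analysed on Orbitrap Eclipse LC-MS/MS with FAIMS, with FragPipe quantification. The log2 competition ratio per cysteine is the mean control-channel divided by the mean compound-channel reporter intensity. Cysteines quantified in only one replicate were left out.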

log2 ratio of iodoacetamide-alkyne labeling, inactive:
CCT4 C252 (UniProt P50991) -0.13
RPL28 C13 (UniProt P46779) 0.029
IRAK1 C43 (UniProt P51617) 0.169
NSF C568 (UniProt P46459) 0.0569
PHKA1 C1082 (UniProt P46020) 0.479
FASN C1186 (UniProt P49327) 0.278
FXR1 C157 (UniProt P51114) 0.284
IDH3A C359 (UniProt P50213) 0.521
ST13 C16 (UniProt P50502) 0.314
NSF C11 (UniProt P46459) -0.1
MKI67 C2706 (UniProt P46013) 0.17
PREP C25 (UniProt P48147) 0.00615
CBX5 C133 (UniProt P45973) 0.312
UniProt P48230_C2 0.0901
EMD C147 (UniProt P50402) 0.3
CCT5 C181 (UniProt P48643) 0.195
NDUFV1 C425 (UniProt P49821) 0.208
DNA2 C569 (UniProt P51530) 0.252
GALK1 C351 (UniProt P51570) -0.0851
GMPS C456 (UniProt P49915) -0.00947
NSF C250 (UniProt P46459) 0.0683
UniProt P46379_C856 0.00951

Not a retest: entries from further up.
log2 ratio of iodoacetamide-alkyne labeling, inactive:
GALK1 C351 (UniProt P51570) -0.0851
GMPS C456 (UniProt P49915) -0.00947
